# Values from PubChem BioAssay AID686943 (Drosophila RNAi Screening Center, 2013).
# Test: 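Fly genes whose loss alters ERK activation after insulin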 (primary screen)
# Cell system: Drosophila S2R+ haemocyte-like cells expressing YFP-tagged ERK (Rolled)
# Reagent: long dsRNA against Drosophila genes
# Conditions: insulin stimulation versus unstimulated cells; dose and duration not given
# Read-out: 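Per-plate z-scores of phospho-ERK immunostaining normalised to YFP-tagged ERK, measured with and without insulin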
# Scale: replicate 1, z-score of dpERK with insulin and replicate 2, z-score of dpERK with insulin: higher = more active ERK per ERK-YFP after insulin; replicate 1, z-score of dpERK under basal conditions: higher = more basal active ERK per ERK-YFP
# In all, the deposit lists about 23,000 reagents; this is an unselected part of those with a known target gene and a result. 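Extra replicates exist only for a retested subset of genes; insulin dose and duration not given; both raised and lowered dpERK matter.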 Not all columns of the deposit are shown. Not given: the amount of reagent, the time to read-out.
gene knocked down,DRSC id,"replicate 1, z-score of dpERK with insulin","replicate 2, z-score of dpERK with insulin","replicate 1, z-score of dpERK under basal conditions"
Osi19,DRSC12569,0.26,-0.34,-0.14
CG31230,DRSC22130,-0.3,0.12,-0.08
CG10597,DRSC19357,0.06,0.82,1.26
Spc105R,DRSC11663,-0.66,-2.76,-3.68
Cdc14,DRSC03013,0.27,0.78,0.56
Invadolysin,DRSC15527,0.19,0.29,3.2
CG18636,DRSC02685,0.63,0.21,0.83
CG4627,DRSC06873,0.31,0.34,0.71
shrb,DRSC07061,-2.23,-0.94,-0.73
CG13658,DRSC14659,0.38,0.01,0.24
Cht7,DRSC08538,0.32,1.54,0.19
Cht7,DRSC21783,0.51,-0.17,0.11
CG7857,DRSC10925,0.37,0.84,0.57
CG10265,DRSC05986,-0.46,0.36,-0.42
CG10265,DRSC21680,-0.02,0.32,0.83
CG15142,DRSC02443,-0.77,-0.27,-0.5

5 consecutive reagents from above, for reference:
gene knocked down,DRSC id,"replicate 1, z-score of dpERK with insulin","replicate 2, z-score of dpERK with insulin","replicate 1, z-score of dpERK under basal conditions"
CG4627,DRSC06873,0.31,0.34,0.71
shrb,DRSC07061,-2.23,-0.94,-0.73
CG13658,DRSC14659,0.38,0.01,0.24
Cht7,DRSC08538,0.32,1.54,0.19
Cht7,DRSC21783,0.51,-0.17,0.11

Additional records follow:
gene knocked down,DRSC id,"replicate 1, z-score of dpERK with insulin","replicate 2, z-score of dpERK with insulin","replicate 1, z-score of dpERK under basal conditions"
BI-1,DRSC10782,-0.94,-0.27,-0.36
2mit,DRSC14194,0.33,0.53,0.75
2mit,DRSC15224,0.37,0,-0.53
Pfdn4,DRSC09761,0.54,1.24,
RapGAP1,DRSC02293,-1.3,-0.67,-0.29
RapGAP1,DRSC02294,-0.91,0.1,-0.61
RapGAP1,DRSC02295,-0.55,-0.14,-1.78
RapGAP1,DRSC03406,0.67,0.15,0.21
CG12480,DRSC19460,1.31,0.71,0.31
CG6443,DRSC02958,0.85,0.63,-0.5
CG7542,DRSC10868,-0.1,0.15,0.43
pum,DRSC12722,0.79,0.63,-0.31
pum,DRSC12726,2,0.6,-0.06
pum,DRSC17037,0.88,0.49,0.45
pum,DRSC17038,0.08,0.14,-0.67
pum,DRSC22758,0.47,0.63,-0.39
pum,DRSC22794,0.17,-0.19,-1.44
CG30349,DRSC06421,-0.1,-0.22,-0.71
CG30349,DRSC06839,-0.57,0.03,-0.72
Sap47,DRSC16850,0.13,-1.78,-0.01
Lrt,DRSC06045,0.72,0.13,-2.04
Sce,DRSC16825,-1.05,-0.58,-1.11
CG33263,DRSC10108,-0.45,0.34,-2.05
